Laboratory results reported in the supplement of paper PMC12823440, “Inhibitors supercharge kinase turnover through native proteolytic circuits” (Nature, 2025).
Some of the results follow. The calls rarely recur for the same compound in another form.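 Kinases were expressed as nanoluciferase fusions in K562 cells and luminescence was read every 4 h between 2 and 18 h as percent of control, DMSO set to 100% and a positive control to 0%. A time point counts as decreased when the signal drops significantly (2 sigma). The hit call is the authors' own, does not follow from the count of time points alone, and its rule is not shown.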

By UniProt entry, the sequences of proteins in these tests, tags left out. Where a name states a change or a piece, a line headed by the entry shows the natural chain unless it says otherwise.
UniProt Q8IWU2: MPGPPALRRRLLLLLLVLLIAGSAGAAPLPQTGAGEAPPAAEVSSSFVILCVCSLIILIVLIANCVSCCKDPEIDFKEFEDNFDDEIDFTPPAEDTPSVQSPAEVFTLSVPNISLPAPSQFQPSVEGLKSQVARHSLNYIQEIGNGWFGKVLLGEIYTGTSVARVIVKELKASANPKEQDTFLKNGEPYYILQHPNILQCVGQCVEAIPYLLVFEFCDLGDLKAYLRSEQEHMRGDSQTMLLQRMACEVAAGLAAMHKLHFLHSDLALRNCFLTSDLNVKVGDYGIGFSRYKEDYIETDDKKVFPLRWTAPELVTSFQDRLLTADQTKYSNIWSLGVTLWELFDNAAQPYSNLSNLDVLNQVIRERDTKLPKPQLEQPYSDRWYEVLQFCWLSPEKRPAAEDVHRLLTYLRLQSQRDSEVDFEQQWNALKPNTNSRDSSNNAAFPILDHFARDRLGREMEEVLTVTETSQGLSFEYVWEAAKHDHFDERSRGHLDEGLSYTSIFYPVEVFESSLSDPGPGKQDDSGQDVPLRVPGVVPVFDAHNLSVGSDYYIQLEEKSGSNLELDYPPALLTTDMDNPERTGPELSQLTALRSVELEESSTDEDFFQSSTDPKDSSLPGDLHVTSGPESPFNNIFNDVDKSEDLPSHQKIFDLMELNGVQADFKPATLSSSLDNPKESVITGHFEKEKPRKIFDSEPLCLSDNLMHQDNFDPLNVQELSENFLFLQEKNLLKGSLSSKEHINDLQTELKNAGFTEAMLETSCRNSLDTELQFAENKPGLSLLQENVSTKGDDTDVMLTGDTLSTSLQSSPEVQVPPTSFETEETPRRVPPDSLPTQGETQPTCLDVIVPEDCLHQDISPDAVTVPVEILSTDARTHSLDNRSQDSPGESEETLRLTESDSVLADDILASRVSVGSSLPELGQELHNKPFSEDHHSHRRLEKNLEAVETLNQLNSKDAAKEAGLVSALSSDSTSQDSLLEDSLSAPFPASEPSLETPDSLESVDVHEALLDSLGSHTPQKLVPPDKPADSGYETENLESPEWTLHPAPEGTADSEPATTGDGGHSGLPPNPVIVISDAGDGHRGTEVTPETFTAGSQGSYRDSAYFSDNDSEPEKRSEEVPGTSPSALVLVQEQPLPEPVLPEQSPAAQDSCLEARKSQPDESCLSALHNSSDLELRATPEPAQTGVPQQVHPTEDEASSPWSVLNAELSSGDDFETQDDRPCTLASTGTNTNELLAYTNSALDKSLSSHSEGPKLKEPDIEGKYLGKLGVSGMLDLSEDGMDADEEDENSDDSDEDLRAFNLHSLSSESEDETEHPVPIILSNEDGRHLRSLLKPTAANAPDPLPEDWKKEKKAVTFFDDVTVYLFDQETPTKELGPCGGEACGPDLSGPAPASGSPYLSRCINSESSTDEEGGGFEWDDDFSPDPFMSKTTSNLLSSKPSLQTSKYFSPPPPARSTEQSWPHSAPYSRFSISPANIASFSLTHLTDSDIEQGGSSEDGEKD
UniProt P07948: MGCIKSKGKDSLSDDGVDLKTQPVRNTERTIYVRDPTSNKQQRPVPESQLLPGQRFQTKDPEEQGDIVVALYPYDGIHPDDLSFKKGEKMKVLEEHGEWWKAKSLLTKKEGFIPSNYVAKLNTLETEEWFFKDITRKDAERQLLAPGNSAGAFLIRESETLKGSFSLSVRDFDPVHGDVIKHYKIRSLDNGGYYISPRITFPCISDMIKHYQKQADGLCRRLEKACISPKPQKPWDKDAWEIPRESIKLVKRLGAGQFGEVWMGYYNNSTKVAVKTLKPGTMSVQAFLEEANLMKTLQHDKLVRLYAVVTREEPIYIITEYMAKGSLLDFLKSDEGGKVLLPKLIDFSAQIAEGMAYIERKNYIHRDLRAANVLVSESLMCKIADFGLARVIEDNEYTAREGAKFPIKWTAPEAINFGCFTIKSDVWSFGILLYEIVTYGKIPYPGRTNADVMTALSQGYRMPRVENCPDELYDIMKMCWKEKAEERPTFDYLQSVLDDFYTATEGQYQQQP
UniProt Q12851: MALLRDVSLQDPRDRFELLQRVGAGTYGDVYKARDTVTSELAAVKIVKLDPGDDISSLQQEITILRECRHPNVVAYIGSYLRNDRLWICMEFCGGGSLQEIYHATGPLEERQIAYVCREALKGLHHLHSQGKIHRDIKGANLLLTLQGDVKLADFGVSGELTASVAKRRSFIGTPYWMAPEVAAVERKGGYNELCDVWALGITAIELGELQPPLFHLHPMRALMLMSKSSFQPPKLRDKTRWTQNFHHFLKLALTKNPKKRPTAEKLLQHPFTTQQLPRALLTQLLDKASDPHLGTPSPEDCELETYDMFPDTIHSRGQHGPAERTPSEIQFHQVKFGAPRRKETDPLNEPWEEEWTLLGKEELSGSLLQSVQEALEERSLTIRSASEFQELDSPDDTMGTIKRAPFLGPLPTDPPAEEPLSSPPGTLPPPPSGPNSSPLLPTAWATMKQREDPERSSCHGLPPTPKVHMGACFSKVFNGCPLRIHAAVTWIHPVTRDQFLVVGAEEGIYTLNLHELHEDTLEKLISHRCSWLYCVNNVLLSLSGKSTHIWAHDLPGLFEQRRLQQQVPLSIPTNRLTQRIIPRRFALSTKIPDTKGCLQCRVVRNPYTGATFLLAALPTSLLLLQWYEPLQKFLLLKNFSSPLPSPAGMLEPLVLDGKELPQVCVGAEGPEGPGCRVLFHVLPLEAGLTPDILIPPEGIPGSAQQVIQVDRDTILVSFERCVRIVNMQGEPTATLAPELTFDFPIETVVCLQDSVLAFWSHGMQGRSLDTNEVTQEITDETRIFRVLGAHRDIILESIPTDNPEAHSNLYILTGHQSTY
UniProt P28482, whole entry: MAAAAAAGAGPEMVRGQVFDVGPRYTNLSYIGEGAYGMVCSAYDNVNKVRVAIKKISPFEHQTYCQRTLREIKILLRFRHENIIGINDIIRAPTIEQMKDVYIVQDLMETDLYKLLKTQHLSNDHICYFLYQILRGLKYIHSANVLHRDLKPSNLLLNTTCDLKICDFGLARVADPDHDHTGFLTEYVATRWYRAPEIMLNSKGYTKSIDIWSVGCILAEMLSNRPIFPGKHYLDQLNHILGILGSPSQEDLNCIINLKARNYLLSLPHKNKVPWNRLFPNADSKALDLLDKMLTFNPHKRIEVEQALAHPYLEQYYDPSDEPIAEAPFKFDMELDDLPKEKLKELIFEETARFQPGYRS
UniProt P31152, whole entry: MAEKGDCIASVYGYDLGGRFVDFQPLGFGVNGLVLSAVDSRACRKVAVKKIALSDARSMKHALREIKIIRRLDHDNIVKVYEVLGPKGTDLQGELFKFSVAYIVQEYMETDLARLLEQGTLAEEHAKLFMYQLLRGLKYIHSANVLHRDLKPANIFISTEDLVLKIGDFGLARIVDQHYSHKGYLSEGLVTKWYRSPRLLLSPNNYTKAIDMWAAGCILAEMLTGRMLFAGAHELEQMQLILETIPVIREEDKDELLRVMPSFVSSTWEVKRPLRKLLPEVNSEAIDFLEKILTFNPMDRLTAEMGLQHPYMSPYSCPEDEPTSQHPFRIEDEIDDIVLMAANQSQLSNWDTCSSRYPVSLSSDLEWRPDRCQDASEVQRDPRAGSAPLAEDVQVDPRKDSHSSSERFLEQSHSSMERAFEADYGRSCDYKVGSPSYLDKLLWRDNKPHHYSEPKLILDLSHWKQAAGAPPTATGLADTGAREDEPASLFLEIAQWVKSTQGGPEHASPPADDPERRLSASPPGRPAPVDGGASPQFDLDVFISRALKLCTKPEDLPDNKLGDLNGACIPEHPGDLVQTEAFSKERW
UniProt P49137, whole entry, looked up: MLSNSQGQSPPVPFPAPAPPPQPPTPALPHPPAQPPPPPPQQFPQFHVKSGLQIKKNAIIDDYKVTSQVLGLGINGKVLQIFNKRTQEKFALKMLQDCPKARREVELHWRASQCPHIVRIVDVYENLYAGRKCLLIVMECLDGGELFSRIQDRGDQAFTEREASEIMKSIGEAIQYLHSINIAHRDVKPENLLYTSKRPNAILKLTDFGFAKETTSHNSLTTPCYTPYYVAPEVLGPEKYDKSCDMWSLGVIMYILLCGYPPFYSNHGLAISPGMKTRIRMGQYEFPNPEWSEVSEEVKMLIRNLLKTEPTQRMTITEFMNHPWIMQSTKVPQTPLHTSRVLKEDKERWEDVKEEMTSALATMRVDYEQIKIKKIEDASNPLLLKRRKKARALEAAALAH
UniProt Q9BUB5: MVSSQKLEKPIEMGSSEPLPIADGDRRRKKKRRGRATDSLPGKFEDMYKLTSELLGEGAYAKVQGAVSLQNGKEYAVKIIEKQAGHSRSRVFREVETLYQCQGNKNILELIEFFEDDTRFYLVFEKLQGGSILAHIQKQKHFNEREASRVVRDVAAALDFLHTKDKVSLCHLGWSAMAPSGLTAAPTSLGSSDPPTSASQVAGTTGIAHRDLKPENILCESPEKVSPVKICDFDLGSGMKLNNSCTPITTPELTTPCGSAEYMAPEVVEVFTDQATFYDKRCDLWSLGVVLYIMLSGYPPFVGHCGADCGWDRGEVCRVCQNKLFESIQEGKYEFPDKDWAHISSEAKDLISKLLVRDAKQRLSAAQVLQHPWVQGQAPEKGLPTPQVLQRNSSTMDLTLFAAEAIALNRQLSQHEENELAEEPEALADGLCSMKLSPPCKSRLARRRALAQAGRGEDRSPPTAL
UniProt Q16620, whole entry, looked up: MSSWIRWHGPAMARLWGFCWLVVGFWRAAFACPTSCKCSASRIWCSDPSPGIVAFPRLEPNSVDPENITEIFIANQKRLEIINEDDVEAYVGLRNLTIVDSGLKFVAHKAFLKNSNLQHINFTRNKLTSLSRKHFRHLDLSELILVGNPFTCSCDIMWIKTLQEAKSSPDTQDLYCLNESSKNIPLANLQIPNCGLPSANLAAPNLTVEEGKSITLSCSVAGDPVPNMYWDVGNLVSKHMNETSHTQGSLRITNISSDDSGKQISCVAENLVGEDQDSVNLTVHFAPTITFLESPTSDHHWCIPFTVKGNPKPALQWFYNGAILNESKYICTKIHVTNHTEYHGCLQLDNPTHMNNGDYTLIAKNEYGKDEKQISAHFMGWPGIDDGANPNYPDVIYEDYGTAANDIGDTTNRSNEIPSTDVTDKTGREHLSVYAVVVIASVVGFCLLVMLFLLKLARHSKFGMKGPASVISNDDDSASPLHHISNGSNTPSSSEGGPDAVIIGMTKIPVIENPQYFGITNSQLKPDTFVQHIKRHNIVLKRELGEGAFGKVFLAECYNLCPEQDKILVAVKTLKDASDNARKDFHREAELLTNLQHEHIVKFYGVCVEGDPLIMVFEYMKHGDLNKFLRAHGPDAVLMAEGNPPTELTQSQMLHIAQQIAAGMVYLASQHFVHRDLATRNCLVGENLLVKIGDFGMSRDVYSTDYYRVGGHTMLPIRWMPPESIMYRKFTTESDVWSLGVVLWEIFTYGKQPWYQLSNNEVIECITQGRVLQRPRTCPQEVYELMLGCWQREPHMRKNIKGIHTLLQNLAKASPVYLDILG

Tests used:
Assay in all cases: number of time points (of 5) at which kinase-Nluc abundance scored as decreased, DMSO-normalised (count); higher = more persistent destabilization
Settings in all cases: K562; 2-18 h
LMTK2 = LMTK2 (UniProt Q8IWU2)
LYN = LYN (UniProt P07948)
MAP2K1 = MAP2K1 (UniProt Q02750)
MAP2K2 = MAP2K2 (UniProt P36507)
MAP4K2 = MAP4K2 (UniProt Q12851)
MAPK1 = MAPK1 (UniProt P28482)
MAPK4 = MAPK4 (UniProt P31152)
MAPKAPK2 = MAPKAPK2 (UniProt P49137)
MKNK1 = MKNK1 (UniProt Q9BUB5)
NTRK2 = NTRK2 (UniProt Q16620)

CC#CC(=O)Nc1ccc2ncnc(Nc3cccc(Br)c3)c2c1 (10 µM)
number of time points (LMTK2): 0
number of time points (LYN): 0
number of time points (MAP2K1): 0
number of time points (MAP2K2): 0
number of time points (MAP4K2): 0
number of time points (MAPK1): 0
number of time points (MAPK4): 0
number of time points (MAPKAPK2): 0
number of time points (MKNK1): 0
number of time points (NTRK2): 0

Cc1ccc(CNc2ncnc3ccc(-c4ccc(CO)o4)cc23)o1 (10 µM)
number of time points (LMTK2): 0
number of time points (LYN): 0
number of time points (MAP2K1): 0
number of time points (MAP2K2): 0
number of time points (MAP4K2): 0
number of time points (MAPK1): 0
number of time points (MAPK4): 0
number of time points (MAPKAPK2): 0
number of time points (MKNK1): 0
number of time points (NTRK2): 0

Cc1cc(Nc2ncnc3ccc(NC4=NC(C)(C)CO4)cc23)ccc1Oc1ccn2ncnc2c1 [Tucatinib] (2.5 µM)
number of time points (LMTK2): 0
number of time points (LYN): 0
number of time points (MAP2K1): 0
number of time points (MAP2K2): 0
number of time points (MAP4K2): 0
number of time points (MAPK1): 0
number of time points (MAPK4): 0
number of time points (MAPKAPK2): 0
number of time points (MKNK1): 0
number of time points (NTRK2): 0

COc1cc2nccc(Oc3ccc(NC(=O)NC4CC4)c(Cl)c3)c2cc1C(N)=O [Lenvatinib (mesylate)] (10 µM)
number of time points (LMTK2): 0
number of time points (LYN): 0
number of time points (MAP2K1): 0
number of time points (MAP2K2): 0
number of time points (MAP4K2): 0
number of time points (MAPK1): 0
number of time points (MAPK4): 0
number of time points (MAPKAPK2): 0
number of time points (MKNK1): 1
number of time points (NTRK2): 1

O=Nc1c(-c2c(O)[nH]c3ccc(F)cc23)[nH]c2ccccc12 [5'-Fluoroindirubinoxime] (10 µM)
number of time points (LMTK2): 0
number of time points (LYN): 0
number of time points (MAP2K1): 0
number of time points (MAP2K2): 0
number of time points (MAP4K2): 0
number of time points (MAPK1): 0
number of time points (MAPK4): 0
number of time points (MAPKAPK2): 0
number of time points (MKNK1): 0
number of time points (NTRK2): 0

COc1ccc(OC)c(C2C(C#N)=C(N)Oc3n[nH]c(-c4ccc5ccccc5c4)c32)c1 (stereo not given) (10 µM)
number of time points (LMTK2): 0
number of time points (LYN): 0
number of time points (MAP2K1): 0
number of time points (MAP2K2): 0
number of time points (MAP4K2): 0
number of time points (MAPK1): 0
number of time points (MAPK4): 0
number of time points (MAPKAPK2): 0
number of time points (MKNK1): 0
number of time points (NTRK2): 0

Cc1cc2ncc(-c3ccc(O)c(O)c3)nc2cc1C [Tyrphostin AG1433] (10 µM)
number of time points (LMTK2): 0
number of time points (LYN): 0
number of time points (MAP2K1): 0
number of time points (MAP2K2): 0
number of time points (MAP4K2): 0
number of time points (MAPK1): 0
number of time points (MAPK4): 0
number of time points (MAPKAPK2): 0
number of time points (MKNK1): 0
number of time points (NTRK2): 0

C[C@]1(O)CCN(c2nc(N3C[C@H](O)[C@@H](O)C3)cc(C(F)(F)F)c2C#N)C1 (10 µM)
number of time points (LMTK2): 0
number of time points (LYN): 0
number of time points (MAP2K1): 0
number of time points (MAP2K2): 0
number of time points (MAP4K2): 0
number of time points (MAPK1): 0
number of time points (MAPK4): 0
number of time points (MAPKAPK2): 0
number of time points (MKNK1): 0
number of time points (NTRK2): 0

NC(=O)c1nc(Nc2ccccc2)sc1NC(=O)C1CCCCC1 (10 µM)
number of time points (LMTK2): 0
number of time points (LYN): 0
number of time points (MAP2K1): 0
number of time points (MAP2K2): 0
number of time points (MAP4K2): 0
number of time points (MAPK1): 0
number of time points (MAPK4): 0
number of time points (MAPKAPK2): 0
number of time points (MKNK1): 0
number of time points (NTRK2): 0

Cc1nc2sccn2c(=O)c1CCN1CCC(=C(c2ccccc2)c2ccc(F)cc2)CC1 (10 µM)
number of time points (LMTK2): 0
number of time points (LYN): 0
number of time points (MAP2K1): 0
number of time points (MAP2K2): 0
number of time points (MAP4K2): 0
number of time points (MAPK1): 0
number of time points (MAPK4): 0
number of time points (MAPKAPK2): 0
number of time points (MKNK1): 0
number of time points (NTRK2): 0

O=C(NCCN1CCCC1)c1cc(-c2ccc(CN3CCOCC3)cc2)nc2ccc(F)cc12 (10 µM)
number of time points (LMTK2): 0
number of time points (LYN): 0
number of time points (MAP2K1): 0
number of time points (MAP2K2): 0
number of time points (MAP4K2): 0
number of time points (MAPK1): 0
number of time points (MAPK4): 0
number of time points (MAPKAPK2): 0
number of time points (MKNK1): 0
number of time points (NTRK2): 0

CN1C(=O)N[C@H](Cc2c[nH]c3c(Cl)cccc23)C1=O [Necrostatin 2] (10 µM)
number of time points (LMTK2): 0
number of time points (LYN): 0
number of time points (MAP2K1): 0
number of time points (MAP2K2): 0
number of time points (MAP4K2): 0
number of time points (MAPK1): 0
number of time points (MAPK4): 0
number of time points (MAPKAPK2): 0
number of time points (MKNK1): 0
number of time points (NTRK2): 0

NC(=O)c1nnc(N[C@@H]2CCCC[C@@H]2N)nc1Nc1cccc2cc[nH]c12 (10 µM)
number of time points (LMTK2): 0
number of time points (LYN): 0
number of time points (MAP2K1): 0
number of time points (MAP2K2): 0
number of time points (MAP4K2): 0
number of time points (MAPK1): 0
number of time points (MAPK4): 0
number of time points (MAPKAPK2): 0
number of time points (MKNK1): 0
number of time points (NTRK2): 0

COc1cc(OC2CCN(C)CC2)ccc1Nc1ncc2c(n1)n(C1CCCC1)c(=O)n2C (10 µM)
number of time points (LMTK2): 0
number of time points (LYN): 0
number of time points (MAP2K1): 0
number of time points (MAP2K2): 0
number of time points (MAP4K2): 0
number of time points (MAPK1): 0
number of time points (MAPK4): 0
number of time points (MAPKAPK2): 0
number of time points (MKNK1): 0
number of time points (NTRK2): 0
